The text below walks through data of PubChem BioAssay AID662 (National Center for Advancing Translational Sciences (NCATS), 2007).

Several values for one entry are separate records, joined by “and”; a condition that tells them apart may be missing. Identical values can stand only once. Some of the results follow. The main result of the screen is listed elsewhere. These columns were measured beside it and carry no call. Most of these compounds were active or inconclusive in the main read-out, so they are no random draw. Words in brackets tell the shape of the fitted curve; partial curves, single points and poor fits give uncertain potencies.

This test in a line: Cell signaling CRE-BLA (Fsk stim). The conditions noted are these: CHO CRE-bla reporter (cAMP response element driving beta-lactamase), forskolin EC10, beta-lactamase ratio; measured here: 460 nm blue channel. The method in brief: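 Forskolin analogue NKH 477 at EC10 stimulated CRE-driven beta-lactamase in CHO cells alongside compound dilution series. Beta-lactamase was measured with CCF4, excitation 405 nm, emission ratio 460/530 nm.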
With `C[C@H](NC[C@H](O)CP(=O)(O)Cc1ccccc1)c1ccc(Cl)c(Cl)c1`, the AC50 was 15.8 µM [falling, partial curve, poor fit].
Under `O=C(Cn1ncc2c1-c1ccccc1OC2)Nc1nc2ccccc2s1` stands 10 µM [falling, single point].
Under `COc1ccc(CNC(=O)C(C)OC(=O)c2cccn2C)cc1` (configuration not stated) stands 3.16 µM [rising, single point].
As for `CCOC(=O)N1CCC(Nc2nc3ccccc3n3nnnc23)CC1`, the figure is 15.8 µM [rising, single point].
Consider `CCCc1nc2sc3c(c2c(=O)n1N)CCC3`, for which the AC50 is 20 µM [rising, single point].
As to `O=C1CCCN1CN(C(=O)c1ccc2c(c1)OCO2)c1ccc(F)cc1`, the AC50 was 0.0794 µM [rising, full curve].
Take `Cn1cc(SCC(=O)Nc2nc3ccccc3s2)c2ccccc21`: the half-maximal activity concentration (AC50) is 15.8 µM [falling, partial curve].
As for `c1cncc(-c2nnc(SCc3cccc4ccccc34)o2)c1`, the figure is 12.6 µM [rising, single point].
Under `COc1ccc([C@@H]2Sc3ccccc3N(CCN(C)C)C(=O)[C@@H]2OC(C)=O)cc1` stands 31.6 µM [falling, single point]; under `CCOC(=O)c1ccc2nc3c(cc2c1)CCS3`, 25.1 µM [rising, single point]; under `O=c1c(-c2ccc(F)cc2)nc2cnc(N3CCOCC3)nc2n1-c1ccccc1`, 5.01 µM [rising, partial curve].
Under `C/C(=C1\SC(N2CCOCC2)=NC1=O)c1ccccc1` stands 0.00501 µM [falling, full curve].
Regarding `Cc1nc(NC(=O)CSc2nc3cccnc3n2C2CCCCC2)sc1C`, the AC50 is 2.51 µM [rising, full curve, poor fit].
As for `COc1ccc(N(C(=O)CNC(=O)c2ccco2)C(C(=O)NC2CCCCC2)c2ccco2)cc1` (configuration not stated), the figure is 25.1 µM [falling, single point]; as for `O=C(CSc1ccc2nnc(-c3ccccc3)n2n1)N1CCN(c2ccccc2)CC1`, 5.01 µM [rising, partial curve]; as for `O=C1CSC(=O)N1CC(O)COc1ccc(Cl)cc1` (configuration not stated), 0.398 µM [rising, partial curve].
As for `CCCCn1c2c(c3ccccc31)CCc1nonc1-2`, the figure is 2 µM [rising, full curve]; as for `CCn1cc(C(=O)OCC(=O)N(C)C2CCS(=O)(=O)C2)c(=O)c2ccc(C)nc21` (configuration not stated), 5.01 µM [rising, full curve, poor fit]; as for `COc1cccc2sc(Nc3nnc(-c4ccccc4Cl)o3)nc12`, 3.16 µM [rising, partial curve].
Under `Cc1c(Cl)cccc1Nc1nc(N)nc(CSc2ncccn2)n1` stands 10 µM [rising, single point].
`Fc1cccc(Cl)c1CSc1nnnn1-c1ccc2c(c1)OCO2`: the AC50 is 0.316 µM [rising, single point].
Under `CCCS(=O)(=O)N1CCN(C(=O)CCC2CCCC2)CC1` stands 5.01 µM [falling, single point].
Under `COc1ccc(Oc2ncc3nc(C)c(=O)n(-c4ccc(OC)cc4)c3n2)cc1` stands 6.31 µM [rising, partial curve]; under `CCN(CC)C(=O)COc1ccc2oc(C)c(C(=O)OC)c2c1`, 10 µM [rising, single point].
As for `CCOc1ccc(N(CC(=O)Nc2ccc(C)c(C)c2)S(=O)(=O)c2c(C)noc2C)cc1`, the figure is 25.1 µM [falling, single point].
Consider `O=c1oc2ccccc2c(O)c1/C=N/c1nc(-c2ccc(O)c(O)c2)cs1`, for which the half-maximal activity concentration (AC50) was 2 µM [falling, single point].
Under `Cc1onc(-c2ccccc2)c1C(=O)Nc1ccccc1C#N` stands 12.6 µM [rising, single point]; under `CCCCn1c(Cl)nc2c1c(=O)n(C)c(=O)n2C`, 12.6 µM [rising, single point].
As for `Nc1c(C(=O)NC2CCCCC2)nsc1C(=O)OCC(=O)NC1CCCCC1`, the figure is 25.1 µM [rising, single point]; as for `C=CC(=O)OCCOCCOC(=O)C=C`, 5.01 µM [falling, full curve]; as for `COc1ccc(N2CCN(C(c3cccs3)C(C)NC(=O)c3ccco3)CC2)cc1` (configuration not stated), 25.1 µM [rising, single point].
Under `CCNC(=O)CC1C(=O)N(c2ccccc2)C(=O)N1CCc1ccc(OC)cc1` (configuration not stated) stands 0.631 µM [falling, full curve]; under `CCc1c(C(=O)Nc2cc(C)ccc2OC)[nH]c(C)c1C(C)=O`, 5.01 µM [rising, full curve, poor fit].
For the compound `CC[C@H](c1ccccc1)c1cc(C(C)(C)C)cc(C(C)(C)C)c1O`, the AC50 was 3.98 µM [rising, single point].
As for `Cc1cc(C)n(-c2nc3c(c(=O)[nH]c(=O)n3C)n2CC(O)COc2ccccc2)n1` (configuration not stated), the AC50 is 12.6 µM [rising, partial curve].
Under `CNc1nc2c(c(=O)n(C)c(=O)n2C)n1Cc1ccccc1` stands 12.6 µM [rising, single point]; under `Cc1c(/C(O)=C2/C(=O)C(=O)N(CCN3CCOCC3)C2c2ccco2)cnn1-c1ccccc1` (configuration not stated), 25.1 µM [rising, single point]; under `O=C(c1ccco1)[C@@H]1[C@@H]2C(=O)N(c3ccccc3)C(=O)[C@@H]2C2c3ccccc3C=CN21` (some centres not stated), 3.98 µM [falling, single point].
As for `O=C(CSc1nc2ccccc2c(=O)n1Cc1ccco1)N1CCCCCC1`, the figure is 10 µM [rising, partial curve].
For `CN1CCN(c2ncc3nc(-c4ccc(Cl)cc4)c(=O)n(CCC#N)c3n2)CC1`, the AC50 was 2.51 µM [rising, full curve].
On to `O=C(NCc1ccccc1)c1ccc(F)c(S(=O)(=O)N2CCOCC2)c1`, for which the concentration at half-maximal activity (AC50) was 0.316 µM [falling, full curve].
Under `COc1cc2c(C(=O)N3CCCc4ccccc43)cn(C)c(=O)c2cc1OC` stands 15.8 µM [rising, partial curve]; under `CCSc1ncnc2c(C#N)c3n(c12)CCCCC3`, 10 µM [rising, partial curve].
Under `O=C(c1ccco1)N1CCN(S(=O)(=O)c2ccc3c(c2)CCN3C(=O)C2CCC2)CC1` stands 10 µM [rising, partial curve]; under `CCN1C(=O)c2ccccc2Sc2ccc(C(=O)NCCN3CCOCC3)cc21`, 12.6 µM [rising, single point].
As for `O=c1ccsn1Cc1ccccc1`, the figure is 0.0316 µM [falling, full curve, poor fit].
With `O=c1c2ccccc2nnn1CSc1nc2sc3c(c2c(=O)n1CC1CCCO1)CCC3` (configuration not stated), the AC50 was 6.31 µM [rising, partial curve].
As for `O=C1CCc2cc(S(=O)(=O)N3CCN(c4cccc(C(F)(F)F)c4)CC3)ccc2N1`, the figure is 15.8 µM [falling, partial curve, poor fit]; as for `Cc1cc(-c2ccc(Cl)cc2)n2nc(N)nc2n1`, 15.8 µM [rising, single point]; as for `O=C1C=C(NCCO)C(=O)c2cnccc21`, 7.94 µM [falling, partial curve].
As for `CCn1ncc(Br)c1C(=O)Nc1ccc(Cl)cn1`, the figure is 10 µM [rising, partial curve]; as for `COc1cccc(Nc2ncc3nc(-c4cccs4)c(=O)n(C[C@H]4CCCO4)c3n2)c1`, 10 µM [rising, partial curve].
Under `COc1cc(NC(=O)c2cc3c(C)nc4ccccc4c3o2)cc(OC)c1OC` stands 3.16 µM [rising, partial curve]; under `CN1CCN(c2ncc3nc(-c4ccc(Cl)cc4)c(=O)n(C4CC4)c3n2)CC1`, 6.31 µM [rising, partial curve]; under `CC1Cc2ccccc2N1C(=O)CCS(=O)(=O)c1cccc2nonc12` (configuration not stated), 0.158 µM [falling, full curve, poor fit].
In the case of `Cc1cccc(-n2ncc3c(N4CCCC4)ncnc32)c1`, the AC50 is 2 µM [rising, single point].
Under `CCCOc1ccccc1NC(=O)CC1Nc2ccccc2NC1=O` (configuration not stated) stands 25.1 µM [rising, single point]; under `CC(C)(c1cc(Br)c(O)c(Br)c1)c1cc(Br)c(O)c(Br)c1`, 7.94 µM [rising, partial curve, poor fit] and 3.98 µM [rising, partial curve].
As for `CCOc1ccc(-c2cc(C(=O)NCCCN3CCN(CC)CC3)c3ccccc3n2)cc1`, the AC50 was 25.1 µM [rising, single point].
As for `Cc1nc2cnc(Oc3ccccc3)nc2n(C2CC2)c1=O`, the figure is 25.1 µM [rising, single point]; as for `COCCn1c(SCc2ccccc2Cl)nc2c1c(=O)[nH]c(=O)n2C`, 10 µM [rising, single point]; as for `COc1cc2[nH]c(=S)n(CC3CCCO3)c(=O)c2cc1OC` (configuration not stated), 12.6 µM [rising, partial curve].
As for `Cc1ccc2c(c1)N(CCC(=O)NCCCOC(C)C)C(=O)C(C)O2` (configuration not stated), the figure is 15.8 µM [rising, partial curve, poor fit].
In the case of `Cc1cccn2c(=O)c3cc(C(=O)NC(C)C)c(=N)n(Cc4ccncc4)c3nc12`, the AC50 is 12.6 µM [rising, partial curve].
Under `CCOC(=O)c1c(C)[nH]c(C(=O)Cn2c(=O)oc3ccccc32)c1C` stands 1 µM [falling, single point]; under `Cc1cc(C(=O)CSc2nc3ccccc3[nH]2)c(C)n1C`, 10 µM [rising, partial curve]; under `CSc1nc(N)nc(SCC(=O)c2ccc(C)cc2)c1C#N`, 10 µM [rising, partial curve].

As a reminder, the AC50 is the concentration at which the activity in the assay is half-maximal.
